# Measured values reported in article PMC8784505.
# Target: T1, CD151 in JAM-A-deficient MDCKII cells (UniProt P48509)
# T1 sequence: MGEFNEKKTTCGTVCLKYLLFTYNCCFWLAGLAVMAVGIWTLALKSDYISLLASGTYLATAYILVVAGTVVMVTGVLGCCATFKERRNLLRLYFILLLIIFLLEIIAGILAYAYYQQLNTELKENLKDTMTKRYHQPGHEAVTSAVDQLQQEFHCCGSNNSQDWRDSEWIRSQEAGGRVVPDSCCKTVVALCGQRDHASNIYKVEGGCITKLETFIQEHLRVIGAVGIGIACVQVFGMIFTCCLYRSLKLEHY
# Assay: co-IP; JAM-A mutant constructs transfected into JAM-A-deficient MDCKII cells, co-IP with CD151 (Fig. 5C); who was precipitated is not stated
substance,measurement,value
hJAM-A/Δ40 (human) (domain or fragment),binding,binds

# These are yes or no findings as the source states them, for the method shown. In cells and extracts the contact can be indirect. A result given as binding can be weak or reduced; the word gives no strength.
